Primary screen of a compound library

Protein sequences, listed by entry. Tags and fused reporters are not part of them. Residues count along the entry.
UniProt A4I591, 1-473: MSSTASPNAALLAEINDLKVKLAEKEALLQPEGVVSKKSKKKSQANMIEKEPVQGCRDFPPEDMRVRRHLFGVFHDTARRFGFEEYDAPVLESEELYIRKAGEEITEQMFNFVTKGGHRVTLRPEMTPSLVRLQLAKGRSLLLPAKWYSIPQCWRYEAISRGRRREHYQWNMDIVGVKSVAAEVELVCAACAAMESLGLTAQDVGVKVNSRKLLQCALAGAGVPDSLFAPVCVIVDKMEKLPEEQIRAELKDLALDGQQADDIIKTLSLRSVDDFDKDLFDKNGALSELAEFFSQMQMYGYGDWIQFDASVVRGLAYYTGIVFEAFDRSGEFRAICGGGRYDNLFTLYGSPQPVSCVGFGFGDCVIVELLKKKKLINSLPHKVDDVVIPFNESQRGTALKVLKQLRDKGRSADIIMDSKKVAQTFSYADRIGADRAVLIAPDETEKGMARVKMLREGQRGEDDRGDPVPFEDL
UniProt I6X8D2, whole entry: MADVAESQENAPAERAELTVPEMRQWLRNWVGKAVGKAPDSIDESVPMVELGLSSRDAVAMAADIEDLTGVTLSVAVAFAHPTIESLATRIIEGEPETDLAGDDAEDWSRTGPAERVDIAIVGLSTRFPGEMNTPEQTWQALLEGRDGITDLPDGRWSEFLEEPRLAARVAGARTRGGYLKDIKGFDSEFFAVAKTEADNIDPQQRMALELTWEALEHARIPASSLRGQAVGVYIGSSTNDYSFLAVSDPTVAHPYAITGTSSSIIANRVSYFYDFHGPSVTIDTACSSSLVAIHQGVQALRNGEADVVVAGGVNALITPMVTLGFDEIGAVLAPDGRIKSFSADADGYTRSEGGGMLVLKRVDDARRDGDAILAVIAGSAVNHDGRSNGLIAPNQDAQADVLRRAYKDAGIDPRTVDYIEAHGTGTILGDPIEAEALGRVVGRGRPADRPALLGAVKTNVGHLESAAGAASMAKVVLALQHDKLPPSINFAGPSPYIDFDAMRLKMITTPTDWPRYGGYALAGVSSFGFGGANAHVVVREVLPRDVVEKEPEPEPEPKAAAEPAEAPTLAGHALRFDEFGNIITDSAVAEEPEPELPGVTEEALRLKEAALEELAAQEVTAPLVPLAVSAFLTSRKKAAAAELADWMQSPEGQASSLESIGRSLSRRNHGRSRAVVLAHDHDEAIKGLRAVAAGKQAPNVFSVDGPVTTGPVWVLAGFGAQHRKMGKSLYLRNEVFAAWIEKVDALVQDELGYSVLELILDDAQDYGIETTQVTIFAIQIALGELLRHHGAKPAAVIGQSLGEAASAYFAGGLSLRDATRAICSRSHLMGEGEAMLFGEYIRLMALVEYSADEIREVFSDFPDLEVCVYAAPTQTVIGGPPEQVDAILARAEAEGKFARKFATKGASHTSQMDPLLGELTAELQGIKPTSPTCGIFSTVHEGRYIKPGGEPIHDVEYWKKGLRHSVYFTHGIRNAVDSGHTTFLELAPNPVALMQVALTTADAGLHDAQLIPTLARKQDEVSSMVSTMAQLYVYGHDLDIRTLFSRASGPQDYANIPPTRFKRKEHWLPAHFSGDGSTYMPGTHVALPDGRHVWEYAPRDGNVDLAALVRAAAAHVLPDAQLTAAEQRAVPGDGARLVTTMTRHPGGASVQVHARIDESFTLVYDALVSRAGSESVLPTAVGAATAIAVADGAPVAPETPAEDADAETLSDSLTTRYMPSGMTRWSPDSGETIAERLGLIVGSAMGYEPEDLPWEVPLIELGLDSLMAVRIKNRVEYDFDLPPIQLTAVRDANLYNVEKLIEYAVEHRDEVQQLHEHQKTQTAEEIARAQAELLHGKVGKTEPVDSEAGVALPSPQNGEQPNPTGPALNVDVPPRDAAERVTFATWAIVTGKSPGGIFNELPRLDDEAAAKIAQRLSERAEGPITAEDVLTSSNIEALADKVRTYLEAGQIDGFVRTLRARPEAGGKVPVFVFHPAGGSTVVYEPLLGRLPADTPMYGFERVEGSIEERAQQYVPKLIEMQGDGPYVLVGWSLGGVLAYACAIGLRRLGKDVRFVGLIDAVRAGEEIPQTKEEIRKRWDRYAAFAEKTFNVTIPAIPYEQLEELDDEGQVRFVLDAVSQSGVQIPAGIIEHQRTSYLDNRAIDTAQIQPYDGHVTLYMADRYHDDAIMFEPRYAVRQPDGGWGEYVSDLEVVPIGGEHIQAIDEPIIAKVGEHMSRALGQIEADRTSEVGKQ

The values are deposited in ChEMBL (CHEMBL3988442, “University of Dundee, Small-Polar-MMV Screening Library” (2021)).

Values are the deposited “Percent Effect”, in %. The record does not define 0% and 100%; most values in the screen are far below 50% and negative numbers occur (in some assays of this library far below -100). This is an unselected part of the compounds tested. Two or more numbers in one place are separate tests of the same structure; such repeats can differ widely. A dash means the value is not listed here; it may have been measured.

Leishmania in macrophages: 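Cell assay of Leishmania donovani living inside macrophages; the read-out is not stated. Tested at 30 µM. Higher reads as stronger inhibition (inferred: compounds with an IC50 in retests scored well above the rest). About 69,000 compounds were tested under these conditions; 1.5% (about 1,000) showed 50% or more at least once.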
LiHisRS: 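Enzyme assay of histidyl-tRNA synthetase; the read-out is not stated. Target: Histidine-tRNA ligase, Leishmania infantum (UniProt A4I591). Tested at 30 µM. Direction is inferred from retests: higher values go with stronger inhibition. The assay is labelled LdHisRS but filed under L. infantum. Of about 69,000 compounds tested this way, about 410 (0.6%) reached 50% or more in at least one test.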
Pks13 thioesterase: 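Polyketide synthase Pks13, Mycobacterium tuberculosis (UniProt I6X8D2). Enzyme assay of the thioesterase domain of polyketide synthase 13; the read-out is not stated. Compounds at 30 µM. The record gives no direction; the compounds picked for IC50 retests had high values, so higher reads as stronger inhibition. Of about 67,000 compounds tested this way, about 300 (0.46%) reached 50% or more in at least one test.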

| # | Compound | Leishmania in macrophages | LiHisRS | Pks13 thioesterase |
|---|---|---|---|---|
| 1 | `Cc1ccoc1C(=O)N1C[C@@H]2COC[C@]2(CNS(C)(=O)=O)C1` | - | -48.67% | -15.41% |
| 2 | `O=C(O)C(F)(F)F.O=C(O)C(F)(F)F.[H][C@@]12COC[C@]1(COc1ccccn1)CN(c1cc(OC)ncn1)C2` | 12.8% | - | - |
| 3 | `NC(=O)NCC(=O)N1CCC2(CC1)c1ccccc1CC2O` (stereo not drawn) | -0.2407% | 16.8% | 4.751% |
| 4 | `CCCc1nnc(N2CCCC(c3nnc(Cn4ccnc4)n3C)C2)s1` (stereo not drawn) | -9.879% | 8.197% | 5.795% |
| 5 | `CC(C)C(=O)Nc1cccc(C(=O)Nc2ccccn2)c1` | -14.84% | -1.124% | -8.614% |
| 6 | `Cn1c(CN2CCCCC2)cc(=O)c(O)c1CN1CCCCC1` | -10.58% | 4.348% | 0.5319% |
| 7 | `O=C(CC1CCCC1)NCCNCc1cccc2c1OCCO2` | 15.96% | 17.65% | -10.92% |
| 8 | `CN(C)C(=O)[C@H]1CC[C@@H]2[C@@H](CCN2Cc2ccccn2)O1` | - | -3.419% | 11.42% |
| 9 | `[H][C@@]12OCCN(C(=O)C3CCOCC3)[C@@]1([H])CC[C@@H]2OCc1ccncc1` | 34.85% | - | - |
| 10 | `Cc1ncsc1C(=O)NC1CCN(Cc2ccc(C#N)cc2)CC1` | 41.79% | 16.44% | 0.6672% |
| 11 | `CN(C)CCN1CC2(CCCN(c3ncc(Cl)cc3F)C2)CCC1=O` (stereo not drawn) | -19.6% | 14.58% | -11.02% |
| 12 | `Cc1ncsc1CN1CCn2c(COCC3CC3)cnc2C1C` (stereo not drawn) | - | 13.16% | -22.54% |
| 13 | `O=C(NCC(c1cccs1)N1CCOCC1)c1ccc(F)cc1Cl` (stereo not drawn) | 18.33% | 9.091% | -18.64% |
| 14 | `O=C(Cn1c(=O)oc2ccccc21)NCC1(O)CCc2ccccc21` (stereo not drawn) | 33.2% | 36.36% | -50% |
| 15 | `CCS(=O)(=O)N1C[C@@H](c2nnc(C)o2)C[C@H]2OCC[C@H]21` | - | 8.547% | -30.08% |
| 16 | `c1ccc(OCc2noc(CN3CCC(N4CCSCC4)CC3)n2)cc1` | 27.62% | -2.74% | -17.14% |
| 17 | `[H][C@]12CNC[C@@]1(C(=O)N(C)Cc1ccco1)CN(C1CCCC1)C2` | 26.17% | - | - |
| 18 | `COc1cccc(CN2CCC3(CC2)CCN(c2ncc(F)cn2)C3)c1` | - | 15.79% | -34.3% |
| 19 | `Cc1cnn(C2CCCN(C(=O)CCc3ccncc3)C2)c1` (stereo not drawn) | 22.24% | 7.143% | 6.184% |
| 20 | `O=C(O)C(F)(F)F.O=C(O)C(F)(F)F.[H][C@]12C[C@@H](Cn3cncn3)N(c3nccs3)[C@@]1([H])CCN(C(C)C)C2` | 20.15% | - | - |
| 21 | `CCC(=O)N1CCN(c2ncnc3c(C)nn(C)c23)CC1` | -55.88% | 10.34% | - |
| 22 | `O=C(NCC1(O)CCOC1)NCC1(c2ccccc2Cl)CCC1` (stereo not drawn) | 7.415% | 12.82% | -17.57% |
| 23 | `Cc1cnc2[nH]c(C(F)(F)F)c(CN3CCSCC3)c2c1` | -6.837% | 8.511% | 0.581% |
| 24 | `O=C(CCc1ccco1)N1CCC(Oc2ccccc2)(C(=O)O)CC1` | 20.72% | -1.639% | -5.047% |
| 25 | `Cc1ccc(CN2CCn3c(C(=O)N(C)C)cnc3C2)s1` | - | 12.41% | -22.56% |
| 26 | `CC(=O)N1CCN(CC(N)=O)CC(COc2ccccc2)C1` (stereo not drawn) | -1.469% | 15.62% | 9.222% |
| 27 | `Cc1nc2ncnn2c2ccn(-c3cccnc3O)c(=O)c12` | 26.97% | -1.01% | -8.361% |
| 28 | `CN(CCCOc1ccccc1Cl)C(=O)CN1C(=O)CCNC1=O` | 10.26% | 14.16% | -9.361% |
| 29 | `NCC1CCCCN1C(=O)Cc1cccc(Cl)c1` (stereo not drawn) | - | 13.16% | 4.738% |
| 30 | `Cc1cc(C)n(-c2cncc(N3CCN(C(=O)CN(C)C)CC3)n2)n1` | -4.777% | 6.25% | 15.98% |
| 31 | `CCn1nc(C)c(NC(=O)CN(C)C(C)c2ccon2)c1C` (stereo not drawn) | 16.56% | 9.333% | -19.87% |
| 32 | `CCN1C(=O)CC(c2ccccc2)C12CCN(CC1CCOCC1)CC2` (stereo not drawn) | - | 9.615% | -20.84% |
| 33 | `Cc1cccn2c(=O)cc(OC(=O)c3ccccc3Cl)nc12` | 2.668% and 18.81% | 10.53% | -1.879% |
| 34 | `Cc1noc(C)c1C(=O)N1C[C@@H]2C[C@@H](c3ccncn3)O[C@@H]2C1` | - | 14.55% | -10.09% |
| 35 | `COCCN1CCC(NC(=O)Cn2cc(C)c3ccccc32)CC1` | 2.167% | -3.03% | -22.89% |
| 36 | `CCCNC(=O)CN1CCN(Cc2csc(C(C)(C)C)n2)CC1` | -1.817% | -10.11% | -21.03% |
| 37 | `O=C(C1CCOC1)N1CCC2(CCN(Cc3nccs3)CC2)CC1` (stereo not drawn) | 13.03% | 15.6% | -8.508% |
| 38 | `COCC(c1cccc(C(F)(F)F)c1)N(C)C(=O)c1ccncc1` (stereo not drawn) | 1.641% | 26.4% | 7.507% |
| 39 | `Cc1nnnn1-c1ccc(CC(=O)N2CCOCC(O)C2)cc1` (stereo not drawn) | 33.21% | 16% | -0.561% |
| 40 | `Cc1cn2nc(N3CCCC3Cn3nc(C)cc3C)sc2n1` (stereo not drawn) | 15.68% | 16.22% | -15.69% |
| 41 | `CC(C)Nc1nc2c(cc1C(=O)N(C)C)CCNCC2.O=C(O)C(F)(F)F.O=C(O)C(F)(F)F` | 9.491% | - | - |
| 42 | `O=C(NCCNc1ncccn1)N1CCCC1c1ccncc1` (stereo not drawn) | 21.71% | 22.89% | -5.387% |
| 43 | `CCNC(=O)NC[C@H]1Cn2c(-c3ccccc3)cnc2CO1` | -82.66% | 20.27% | -33.69% |
| 44 | `Cc1ccc(C(=O)N2CCC3(CCN(C(=O)c4cccnc4)C3)CC2)o1` | - | 12.03% | -18.81% |
| 45 | `Cn1c(NCCC(=O)N2CCCC2)c(C#N)c(=O)n(C)c1=O` | -1.119% | 2.74% | 1.709% |
| 46 | `CS(=O)(=O)N1CCCC12CCN(Cc1ccoc1)CC2` | 28.52% | 7.547% | 3.908% |
| 47 | `c1cncc(COCc2nnc3n2CCN(Cc2cccs2)C3)c1` | - | 17.14% | 27.86% |
| 48 | `Cc1noc(C(C)C)c1C(=O)NCCN1CCCCCC1=O` | 20.26% | 9.375% | 15.92% |
| 49 | `[H][C@@]12CCN(CCOCc3ccccc3)[C@]1([H])CC[C@@H](C(=O)NCC1CC1)O2` | 49.48% | - | - |
| 50 | `Cc1cc(C)n(-c2ccc(C(=O)NCc3cncn3CC(C)C)cc2)n1` | 13.95% | 11.97% | -53.93% |
| 51 | `Cc1ccc(CN2CCC3(CC(=O)N(c4cccc(F)c4)C3)C2)o1` (stereo not drawn) | - | 27.63% | -26.29% |
| 52 | `[H][C@@]12CS(=O)(=O)C[C@]1([H])N(Cc1cccc(OCC(N)=O)c1)CCN2CCC` | 10.88% | - | - |
| 53 | `Cc1ccc(CN2CC[C@@H](NC(=O)c3cccnc3)[C@H](O)C2)s1` | -0.5963% | 18.52% | 7.716% |
| 54 | `CCn1ccc(-c2cc(NCCCOc3cccc(C)c3)nc(C)n2)n1` | 7.258% | 7.092% | -34.57% |

3 of the entries, repeated:

Compound	Leishmania in macrophages	LiHisRS	Pks13 thioesterase
CCCc1nnc(N2CCCC(c3nnc(Cn4ccnc4)n3C)C2)s1 (stereo not drawn)	-9.879%	8.197%	5.795%
O=C(C1CCOC1)N1CCC2(CCN(Cc3nccs3)CC2)CC1 (stereo not drawn)	13.03%	15.6%	-8.508%
Cn1c(CN2CCCCC2)cc(=O)c(O)c1CN1CCCCC1	-10.58%	4.348%	0.5319%